Results are given in words; binding and its absence hold for the method and conditions named. For some assays here: Binding seen in cells or lysates may run through a third protein. Some entries that bind do so weakly or less than the wild type. For some assays here: Tags and fused reporters may be left off the sequences shown.
Key:
[1] = target: T1, ACA8 (residues 1-180)-BK (Arabidopsis thaliana) (UniProt Q9LF79); test: two-hybrid; yeast AH109; CAM3 in pGADT7 (prey), ACA8 (residues 1-180) in pGBKT7 (bait); growth on SD/-Ade/-His/-Leu/-Trp and blue colonies with X-alpha-gal
T1 sequence: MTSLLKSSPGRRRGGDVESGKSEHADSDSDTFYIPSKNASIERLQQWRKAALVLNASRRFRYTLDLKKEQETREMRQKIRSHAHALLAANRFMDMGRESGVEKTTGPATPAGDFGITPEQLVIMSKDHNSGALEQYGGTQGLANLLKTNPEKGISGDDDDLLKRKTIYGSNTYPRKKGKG

[2] = target: T2, ACA8-Nluc (Arabidopsis thaliana) (UniProt Q9LF79); test: split reporter; firefly luciferase complementation imaging (LCI) in Nicotiana leaves infiltrated with Agrobacterium GV3101; CAM3-Cluc/ACA8-Nluc against Cluc/Nluc, CAM3-Cluc/Nluc and Cluc/ACA8-Nluc
T2 sequence: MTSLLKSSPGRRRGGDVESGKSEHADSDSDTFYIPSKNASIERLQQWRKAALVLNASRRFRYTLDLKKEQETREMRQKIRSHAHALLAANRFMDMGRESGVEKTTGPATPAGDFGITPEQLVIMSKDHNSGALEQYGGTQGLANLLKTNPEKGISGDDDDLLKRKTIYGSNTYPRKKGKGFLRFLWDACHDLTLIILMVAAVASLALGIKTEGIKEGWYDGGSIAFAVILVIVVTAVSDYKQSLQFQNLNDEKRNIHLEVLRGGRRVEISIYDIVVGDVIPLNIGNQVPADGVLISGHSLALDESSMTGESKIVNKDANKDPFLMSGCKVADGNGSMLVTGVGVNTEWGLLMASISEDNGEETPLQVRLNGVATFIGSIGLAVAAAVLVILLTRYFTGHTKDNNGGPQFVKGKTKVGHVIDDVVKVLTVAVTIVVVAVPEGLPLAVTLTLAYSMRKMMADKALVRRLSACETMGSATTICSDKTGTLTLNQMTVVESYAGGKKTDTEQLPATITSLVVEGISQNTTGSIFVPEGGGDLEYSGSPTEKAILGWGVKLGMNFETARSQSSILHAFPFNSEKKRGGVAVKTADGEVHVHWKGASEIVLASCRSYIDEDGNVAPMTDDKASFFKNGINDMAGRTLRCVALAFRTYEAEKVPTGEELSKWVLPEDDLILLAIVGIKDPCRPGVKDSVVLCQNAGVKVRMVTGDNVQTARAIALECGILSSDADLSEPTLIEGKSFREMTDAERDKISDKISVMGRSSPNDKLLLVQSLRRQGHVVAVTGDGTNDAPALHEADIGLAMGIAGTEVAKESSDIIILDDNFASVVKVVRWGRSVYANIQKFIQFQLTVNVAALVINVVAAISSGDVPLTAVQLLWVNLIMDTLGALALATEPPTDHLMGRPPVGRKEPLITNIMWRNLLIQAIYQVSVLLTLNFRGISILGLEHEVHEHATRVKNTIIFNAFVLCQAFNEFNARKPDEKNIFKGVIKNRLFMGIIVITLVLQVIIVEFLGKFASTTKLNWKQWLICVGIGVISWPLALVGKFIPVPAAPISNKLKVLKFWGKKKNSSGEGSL

Row | Substance | binding [1] | binding [2]
1 | CAM3-AD (calmodulin 3 in pGADT7) (from UniProt P0DH98 1-149) | binds | –
2 | CAM3-Cluc (from UniProt P0DH98 1-149) | – | binds
